Results deposited as PubChem BioAssay AID1259308 (NCATS, 2017)

Purpose: 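Candidate targets for better recombinant protein yield in mammalian cells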 (primary screen)
Cells: human HEK293 embryonic kidney cells stably expressing firefly luciferase (HEK-CMV-Luc2-Hygro)
Reagents: single siRNA against human genes, 0.8 pmol siRNA per well
Timing: 72 h
Measurement: 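Reporter luminescence and viable-cell signal on separate replicate plates, given as percent of non-targeting control and median/MAD z-scores, plus per-cell luciferase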
Reading the numbers: total luciferase, z-score and total luciferase, % of control: higher = more reporter protein produced; luciferase per cell, z-score: higher = more reporter output per viable cell; viable cells, % of control: higher = more viable cells
Hit rule: 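Active when the median/MAD z-score for overall luciferase is greater than 3; a gene was taken forward for validation with new siRNAs if at least two of its three siRNAs passed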
Meaning of the calls: active = raised luciferase; inactive = no rise
The whole screen tested about 59,000 reagents; below is a random part of them. About 1,510 of them (2.6%) were called active. 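Calls use total luciferase alone and ignore viability, so some active siRNAs may act by altering cell number.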 The numbers tell different reagents against one gene apart.

no.	gene	siRNA no.	total luciferase, z-score	total luciferase, % of control	luciferase per cell, z-score	viable cells, % of control	outcome
1	GNB1L (G protein subunit beta 1 like)	1	-0.0653	80.6	-0.43	101	inactive
2	GNB1L (G protein subunit beta 1 like)	2	0.555	92.9	0.644	87.7	inactive
3	GNB1L (G protein subunit beta 1 like)	3	0.382	89.5	0.502	87.6	inactive
4	C12orf71 (chromosome 12 open reading frame 71)	1	-0.361	74.7	-0.119	86.2	inactive
5	C12orf71 (chromosome 12 open reading frame 71)	2	0.315	88.2	0.396	88.7	inactive
6	C12orf71 (chromosome 12 open reading frame 71)	3	-0.254	76.8	-0.625	101	inactive
7	HILPDA (hypoxia inducible lipid droplet associated)	1	0.557	93	0.259	97	inactive
8	HILPDA (hypoxia inducible lipid droplet associated)	2	1.64	114	1.83	79	inactive
9	HILPDA (hypoxia inducible lipid droplet associated)	3	-1.71	47.9	-1.55	80.6	inactive
10	NAA16 (N-alpha-acetyltransferase 16, NatA auxiliary subunit)	1	4.96	181	3.26	85.5	active
11	NAA16 (N-alpha-acetyltransferase 16, NatA auxiliary subunit)	2	0.277	87.4	-0.277	105	inactive
12	NAA16 (N-alpha-acetyltransferase 16, NatA auxiliary subunit)	3	0.848	98.8	0.47	97.5	inactive
13	MDH2 (malate dehydrogenase 2)	1	0.441	90.7	0.236	95.2	inactive
14	MDH2 (malate dehydrogenase 2)	2	-0.0193	81.5	0.959	70.8	inactive
15	MDH2 (malate dehydrogenase 2)	3	-0.0452	81	-0.28	97.4	inactive
16	RTCB (RNA 2',3'-cyclic phosphate and 5'-OH ligase)	1	-0.139	79.1	-0.733	107	inactive
17	RTCB (RNA 2',3'-cyclic phosphate and 5'-OH ligase)	2	1.33	108	1.04	92.2	inactive
18	RTCB (RNA 2',3'-cyclic phosphate and 5'-OH ligase)	3	2.38	129	1.94	86.7	inactive
19	MYH15 (myosin heavy chain 15)	1	-0.839	65.2	-0.823	90.5	inactive
20	MYH15 (myosin heavy chain 15)	2	-0.603	69.9	-1.12	105	inactive
21	MYH15 (myosin heavy chain 15)	3	2.59	133	2.31	81.2	inactive
22	TRIM24 (tripartite motif containing 24)	1	0.487	91.6	-0.0962	105	inactive
23	TRIM24 (tripartite motif containing 24)	2	-1.82	45.8	-0.483	58.1	inactive
24	TRIM24 (tripartite motif containing 24)	3	0.429	90.4	-0.168	106	inactive
25	EPHX1 (epoxide hydrolase 1)	1	-1.48	52.4	-1.39	84.5	inactive
26	EPHX1 (epoxide hydrolase 1)	2	-0.534	71.3	-0.591	93	inactive
27	EPHX1 (epoxide hydrolase 1)	3	0.252	86.9	-0.639	115	inactive
28	SNRNP40 (small nuclear ribonucleoprotein U5 subunit 40)	1	-1.71	47.8	-1.7	83.6	inactive
29	SNRNP40 (small nuclear ribonucleoprotein U5 subunit 40)	2	-0.802	65.9	-1.51	110	inactive
30	SNRNP40 (small nuclear ribonucleoprotein U5 subunit 40)	3	-1.66	48.9	-2	92.7	inactive
31	ZC3H11D (zinc finger CCCH-type containing 11D)	1	3.63	154	2.51	89	active
32	ZC3H11D (zinc finger CCCH-type containing 11D)	2	1.93	120	1.31	95.2	inactive
33	ZC3H11D (zinc finger CCCH-type containing 11D)	3	-0.00476	81.8	-0.699	110	inactive
34	PAK1IP1 (PAK1 interacting protein 1)	1	-1.19	58.2	-1.54	97.6	inactive
35	PAK1IP1 (PAK1 interacting protein 1)	2	-1.62	49.6	-1.6	84.4	inactive
36	PAK1IP1 (PAK1 interacting protein 1)	3	-0.982	62.4	-1.19	95.2	inactive
37	ARHGAP25 (Rho GTPase activating protein 25)	1	0.814	98.1	0.0816	107	inactive
38	ARHGAP25 (Rho GTPase activating protein 25)	2	0.215	86.2	-0.0432	97.4	inactive
39	ARHGAP25 (Rho GTPase activating protein 25)	3	-1.53	51.4	-1.44	83.9	inactive
40	ATP4A (ATPase H+/K+ transporting subunit alpha)	1	-1.38	54.4	-0.805	75.1	inactive
41	ATP4A (ATPase H+/K+ transporting subunit alpha)	2	0.374	89.3	0.29	92.5	inactive
42	ATP4A (ATPase H+/K+ transporting subunit alpha)	3	-0.78	66.4	-1.31	105	inactive
43	SPANXN2 (SPANX family member N2)	1	-0.66	68.8	-0.945	98.5	inactive
44	SPANXN2 (SPANX family member N2)	2	0.0649	83.2	0.412	83.4	inactive
45	SPANXN2 (SPANX family member N2)	3	1.48	111	1.47	84.5	inactive

11 entries from above, reformatted.
NAA16 (N-alpha-acetyltransferase 16, NatA auxiliary subunit) #3 → total luciferase, z-score = 0.848; total luciferase, % of control = 98.8; luciferase per cell, z-score = 0.47; viable cells, % of control = 97.5; outcome = inactive
MDH2 (malate dehydrogenase 2) #1 → total luciferase, z-score = 0.441; total luciferase, % of control = 90.7; luciferase per cell, z-score = 0.236; viable cells, % of control = 95.2; outcome = inactive
MDH2 (malate dehydrogenase 2) #2 → total luciferase, z-score = -0.0193; total luciferase, % of control = 81.5; luciferase per cell, z-score = 0.959; viable cells, % of control = 70.8; outcome = inactive
MDH2 (malate dehydrogenase 2) #3 → total luciferase, z-score = -0.0452; total luciferase, % of control = 81; luciferase per cell, z-score = -0.28; viable cells, % of control = 97.4; outcome = inactive
RTCB (RNA 2',3'-cyclic phosphate and 5'-OH ligase) #1 → total luciferase, z-score = -0.139; total luciferase, % of control = 79.1; luciferase per cell, z-score = -0.733; viable cells, % of control = 107; outcome = inactive
RTCB (RNA 2',3'-cyclic phosphate and 5'-OH ligase) #2 → total luciferase, z-score = 1.33; total luciferase, % of control = 108; luciferase per cell, z-score = 1.04; viable cells, % of control = 92.2; outcome = inactive
RTCB (RNA 2',3'-cyclic phosphate and 5'-OH ligase) #3 → total luciferase, z-score = 2.38; total luciferase, % of control = 129; luciferase per cell, z-score = 1.94; viable cells, % of control = 86.7; outcome = inactive
MYH15 (myosin heavy chain 15) #1 → total luciferase, z-score = -0.839; total luciferase, % of control = 65.2; luciferase per cell, z-score = -0.823; viable cells, % of control = 90.5; outcome = inactive
MYH15 (myosin heavy chain 15) #2 → total luciferase, z-score = -0.603; total luciferase, % of control = 69.9; luciferase per cell, z-score = -1.12; viable cells, % of control = 105; outcome = inactive
MYH15 (myosin heavy chain 15) #3 → total luciferase, z-score = 2.59; total luciferase, % of control = 133; luciferase per cell, z-score = 2.31; viable cells, % of control = 81.2; outcome = inactive
TRIM24 (tripartite motif containing 24) #1 → total luciferase, z-score = 0.487; total luciferase, % of control = 91.6; luciferase per cell, z-score = -0.0962; viable cells, % of control = 105; outcome = inactive

Further results follow:
no.	gene	siRNA no.	total luciferase, z-score	total luciferase, % of control	luciferase per cell, z-score	viable cells, % of control	outcome
46	XRCC6 (X-ray repair cross complementing 6)	1	1.71	116	1.83	79.9	inactive
47	XRCC6 (X-ray repair cross complementing 6)	2	0.057	83	-0.0624	94.3	inactive
48	XRCC6 (X-ray repair cross complementing 6)	3	-0.479	72.4	0.236	76	inactive
49	SMOC2 (SPARC related modular calcium binding 2)	1	-0.17	78.5	-0.49	99.8	inactive
50	SMOC2 (SPARC related modular calcium binding 2)	2	-1.38	54.4	-0.559	70.4	inactive
51	SMOC2 (SPARC related modular calcium binding 2)	3	-0.884	64.3	-0.0197	72.2	inactive
52	PPARD (peroxisome proliferator activated receptor delta)	1	-2.14	39.2	-3.25	103	inactive
53	PPARD (peroxisome proliferator activated receptor delta)	2	-0.917	63.6	-1.2	97.7	inactive
54	PPARD (peroxisome proliferator activated receptor delta)	3	0.183	85.5	-0.819	119	inactive
55	FMO4 (flavin containing dimethylaniline monoxygenase 4)	1	-0.915	63.7	-0.973	92	inactive
56	FMO4 (flavin containing dimethylaniline monoxygenase 4)	2	0.784	97.5	0.0668	107	inactive
57	FMO4 (flavin containing dimethylaniline monoxygenase 4)	3	0.703	95.9	0.114	104	inactive
58	NPL (N-acetylneuraminate pyruvate lyase)	1	-0.0241	81.4	0.761	74.5	inactive
59	NPL (N-acetylneuraminate pyruvate lyase)	2	-1.6	50	-2.04	95.5	inactive
60	NPL (N-acetylneuraminate pyruvate lyase)	3	-0.23	77.3	-0.264	92.6	inactive
61	SHC4 (SHC adaptor protein 4)	1	0.513	92.1	0.378	93.2	inactive
62	SHC4 (SHC adaptor protein 4)	2	-0.619	69.6	0.0372	77	inactive
63	SHC4 (SHC adaptor protein 4)	3	1.07	103	0.28	107	inactive
64	GNA12 (G protein subunit alpha 12)	1	1.97	121	1.6	88.8	inactive
65	GNA12 (G protein subunit alpha 12)	2	0.444	90.7	0.379	91.7	inactive
66	GNA12 (G protein subunit alpha 12)	3	0.663	95.1	0.522	92.6	inactive
67	C20orf204 (chromosome 20 open reading frame 204)	1	0.375	89.3	0.601	85.2	inactive
68	C20orf204 (chromosome 20 open reading frame 204)	2	-0.652	68.9	-0.753	93.9	inactive
69	C20orf204 (chromosome 20 open reading frame 204)	3	3.49	151	3.25	71.8	active
70	GRM1 (glutamate metabotropic receptor 1)	1	-0.527	71.4	-0.744	97	inactive
71	GRM1 (glutamate metabotropic receptor 1)	2	1.27	107	1.06	90.7	inactive
72	GRM1 (glutamate metabotropic receptor 1)	3	-0.347	75	-0.735	102	inactive
73	TNFRSF11A (TNF receptor superfamily member 11a)	1	-0.0189	81.5	-0.588	106	inactive
74	TNFRSF11A (TNF receptor superfamily member 11a)	2	-1.96	42.9	-1.08	63.7	inactive
75	TNFRSF11A (TNF receptor superfamily member 11a)	3	-0.832	65.3	-0.587	85.2	inactive
